{"source": "PubChem BioAssay AID1053208 | Peter MacCallum Cancer Centre – 2014", "purpose": "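Find knock-downs that sensitise mouse osteosarcoma cells to doxorubicin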 (primary screen)", "cell system": "mouse osteosarcoma cells, early-passage culture from an engineered mouse model of fibroblastic bone tumour", "reagents": "siRNA pool against mouse genes, 40 nM", "timing": "about 120 h (48 h before drug, then 72 h with drug)", "treatment": "doxorubicin 100 nM for 72 h, roughly 30-40% inhibitory dose", "measured": "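Luminescent ATP signal taken as viability with or without 100 nM doxorubicin for 72 h; mean of two wells set against non-targeting siRNA and turned into robust z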", "direction": "viability z-score with doxorubicin: higher = more viable cells under doxorubicin; viability z-score without drug: higher = more viable cells with knock-down alone", "call rule": "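a pool counts as active when its viability z-score with doxorubicin is -2 or below and its z-score without drug lies between -2 and 2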", "note": "This is one part, drawn at random, of about 17,000 reagents tested. Over the whole deposit, 788 (4.7%) were called active. 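Calls rest on z-score classes alone; an extra cut-off of viability at most 70% of control was not applied to them.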 Unmarked entries are inactive. Further read-outs or replicates are left out here."}
{"Gene": "Commd5", "combined z-score class": "no change with or without drug", "viability z-score with doxorubicin": -0.79, "viability z-score without drug": 0.17}
{"Gene": "Kif9", "combined z-score class": "no change with or without drug", "viability z-score with doxorubicin": 0, "viability z-score without drug": -0.17}
{"Gene": "Ost4", "combined z-score class": "no change with or without drug", "viability z-score with doxorubicin": 0.34, "viability z-score without drug": -0.51}
{"Gene": "Phc1", "combined z-score class": "no change with or without drug", "viability z-score with doxorubicin": 0.22, "viability z-score without drug": -0.84}
{"Gene": "Coq8a", "combined z-score class": "no change with or without drug", "viability z-score with doxorubicin": -0.11, "viability z-score without drug": -0.51}
{"Gene": "Aipl1", "combined z-score class": "no change with or without drug", "viability z-score with doxorubicin": -0.79, "viability z-score without drug": 1.52}
{"Gene": "Cltb", "combined z-score class": "no change with or without drug", "viability z-score with doxorubicin": -0.11, "viability z-score without drug": -0.51}
{"Gene": "Ppp2r5a", "combined z-score class": "no change with or without drug", "viability z-score with doxorubicin": 0.45, "viability z-score without drug": 0.84}
{"Gene": "Krtap4-2", "combined z-score class": "no change with or without drug", "viability z-score with doxorubicin": 0.11, "viability z-score without drug": 1.52}

Next part; the last 2 above are carried over.
{"Gene": "Ppp2r5a", "combined z-score class": "no change with or without drug", "viability z-score with doxorubicin": 0.45, "viability z-score without drug": 0.84}
{"Gene": "Krtap4-2", "combined z-score class": "no change with or without drug", "viability z-score with doxorubicin": 0.11, "viability z-score without drug": 1.52}
{"Gene": "Pdyn", "combined z-score class": "no change with or without drug", "viability z-score with doxorubicin": -0.9, "viability z-score without drug": -0.51}
{"Gene": "Ift81", "combined z-score class": "low cell count with doxorubicin only (active)", "viability z-score with doxorubicin": -2.36, "viability z-score without drug": -1.85}
{"Gene": "Tmem229b", "combined z-score class": "no change with or without drug", "viability z-score with doxorubicin": -0.79, "viability z-score without drug": -0.17}
{"Gene": "Prrg2", "combined z-score class": "low cell count with doxorubicin only (active)", "viability z-score with doxorubicin": -2.02, "viability z-score without drug": -0.51}
{"Gene": "Trpv2", "combined z-score class": "no change with or without drug", "viability z-score with doxorubicin": 0.67, "viability z-score without drug": 1.18}
{"Gene": "Unc80", "combined z-score class": "no change with or without drug", "viability z-score with doxorubicin": 1.35, "viability z-score without drug": -0.84}
{"Gene": "Ubn2", "combined z-score class": "no change with or without drug", "viability z-score with doxorubicin": 0.45, "viability z-score without drug": 0.51}
{"Gene": "Tpm3", "combined z-score class": "no change with or without drug", "viability z-score with doxorubicin": -0.56, "viability z-score without drug": -0.34}
{"Gene": "Mgl2", "combined z-score class": "no change with or without drug", "viability z-score with doxorubicin": -0.22, "viability z-score without drug": -0.67}
{"Gene": "Mbtps1", "combined z-score class": "no change with or without drug", "viability z-score with doxorubicin": 0.11, "viability z-score without drug": -0.34}
{"Gene": "Sgta", "combined z-score class": "no change with or without drug", "viability z-score with doxorubicin": 0.45, "viability z-score without drug": -0.17}
{"Gene": "Phc3", "combined z-score class": "no change with or without drug", "viability z-score with doxorubicin": -1.46, "viability z-score without drug": -0.84}
{"Gene": "Kcnd2", "combined z-score class": "no change with or without drug", "viability z-score with doxorubicin": 0.67, "viability z-score without drug": 1.18}
{"Gene": "Cntn2", "combined z-score class": "no change with or without drug", "viability z-score with doxorubicin": -1.12, "viability z-score without drug": -0.51}
{"Gene": "Txndc5", "combined z-score class": "no change with or without drug", "viability z-score with doxorubicin": 0.11, "viability z-score without drug": -0.34}
{"Gene": "Or6c212", "combined z-score class": "no change with or without drug", "viability z-score with doxorubicin": -0.9, "viability z-score without drug": -0.84}
{"Gene": "Kcnab3", "combined z-score class": "no change with or without drug", "viability z-score with doxorubicin": -0.45, "viability z-score without drug": 0.84}
{"Gene": "2810408A11Rik", "combined z-score class": "low cell count with doxorubicin only (active)", "viability z-score with doxorubicin": -2.02, "viability z-score without drug": -1.52}
{"Gene": "Pln", "combined z-score class": "no change with or without drug", "viability z-score with doxorubicin": -1.35, "viability z-score without drug": -0.84}
